The target in assay [1] is T1, Drosophila Clueless (Clu) (Drosophila (endogenous in adult flies and S2R+ cells)) (UniProt A1ZAB5).
T1 sequence: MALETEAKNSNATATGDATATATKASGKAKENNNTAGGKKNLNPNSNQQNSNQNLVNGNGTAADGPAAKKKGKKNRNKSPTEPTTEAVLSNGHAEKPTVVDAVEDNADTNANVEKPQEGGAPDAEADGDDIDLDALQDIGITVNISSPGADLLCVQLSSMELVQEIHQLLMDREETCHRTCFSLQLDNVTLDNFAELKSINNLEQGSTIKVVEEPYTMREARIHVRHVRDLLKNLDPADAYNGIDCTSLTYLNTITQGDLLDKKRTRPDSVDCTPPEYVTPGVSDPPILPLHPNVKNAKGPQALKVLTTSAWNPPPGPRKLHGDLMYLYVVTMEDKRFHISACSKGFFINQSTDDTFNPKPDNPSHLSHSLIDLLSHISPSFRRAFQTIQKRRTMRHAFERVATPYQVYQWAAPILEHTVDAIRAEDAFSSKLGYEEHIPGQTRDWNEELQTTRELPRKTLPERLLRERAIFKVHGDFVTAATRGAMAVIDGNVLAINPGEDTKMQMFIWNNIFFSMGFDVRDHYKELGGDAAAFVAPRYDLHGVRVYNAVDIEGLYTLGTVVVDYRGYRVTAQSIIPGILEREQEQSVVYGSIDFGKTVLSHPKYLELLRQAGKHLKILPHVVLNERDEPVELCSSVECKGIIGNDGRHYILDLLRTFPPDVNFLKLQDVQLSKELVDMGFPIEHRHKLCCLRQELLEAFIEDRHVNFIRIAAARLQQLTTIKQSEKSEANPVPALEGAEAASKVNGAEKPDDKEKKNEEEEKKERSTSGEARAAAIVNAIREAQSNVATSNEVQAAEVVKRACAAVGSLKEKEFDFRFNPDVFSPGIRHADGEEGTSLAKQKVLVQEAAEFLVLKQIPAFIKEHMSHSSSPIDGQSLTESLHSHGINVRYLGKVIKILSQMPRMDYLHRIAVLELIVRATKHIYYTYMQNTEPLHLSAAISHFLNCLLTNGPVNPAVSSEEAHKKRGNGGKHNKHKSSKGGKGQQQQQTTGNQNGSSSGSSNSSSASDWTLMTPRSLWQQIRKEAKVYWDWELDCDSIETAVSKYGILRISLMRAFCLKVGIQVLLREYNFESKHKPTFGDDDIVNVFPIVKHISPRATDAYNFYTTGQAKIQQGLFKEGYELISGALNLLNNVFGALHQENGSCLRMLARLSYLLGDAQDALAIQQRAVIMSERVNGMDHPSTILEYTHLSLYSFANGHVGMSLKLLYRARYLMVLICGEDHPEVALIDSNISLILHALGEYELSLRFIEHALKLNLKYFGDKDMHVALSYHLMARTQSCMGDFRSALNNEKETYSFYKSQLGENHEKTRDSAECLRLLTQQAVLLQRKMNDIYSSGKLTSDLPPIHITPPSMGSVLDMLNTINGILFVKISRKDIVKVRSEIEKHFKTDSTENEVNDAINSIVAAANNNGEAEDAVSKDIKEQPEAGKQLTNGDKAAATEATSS
The assay is described as follows: co-IP; anti-Clu IP from WT fly extract, with and without RNase A; Western blot.

Sequences of proteins named here, by UniProt entry; tags and fusion partners are left off.
UniProt Q9VTP4: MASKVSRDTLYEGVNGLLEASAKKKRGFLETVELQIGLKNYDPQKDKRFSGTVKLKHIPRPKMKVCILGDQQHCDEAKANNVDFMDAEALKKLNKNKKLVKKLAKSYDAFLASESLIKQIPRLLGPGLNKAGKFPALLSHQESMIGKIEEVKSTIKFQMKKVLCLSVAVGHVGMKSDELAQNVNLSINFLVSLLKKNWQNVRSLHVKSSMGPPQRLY
UniProt P50882: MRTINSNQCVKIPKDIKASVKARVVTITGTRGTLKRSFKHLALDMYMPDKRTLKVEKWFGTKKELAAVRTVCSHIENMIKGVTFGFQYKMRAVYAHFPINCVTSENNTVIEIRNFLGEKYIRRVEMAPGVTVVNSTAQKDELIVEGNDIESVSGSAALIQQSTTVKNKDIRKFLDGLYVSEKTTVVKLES
UniProt P29327: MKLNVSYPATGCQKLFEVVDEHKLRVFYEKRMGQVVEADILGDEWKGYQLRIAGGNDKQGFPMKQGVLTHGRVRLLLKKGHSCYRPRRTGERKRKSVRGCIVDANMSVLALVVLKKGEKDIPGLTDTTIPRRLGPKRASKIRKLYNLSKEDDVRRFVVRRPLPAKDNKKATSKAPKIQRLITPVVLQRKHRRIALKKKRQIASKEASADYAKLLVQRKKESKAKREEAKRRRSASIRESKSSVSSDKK

In assay [2] the target is RpL10Ab fused with GFP at the endogenous locus (Drosophila (endogenous locus in the fly stock)) (UniProt Q9VTP4). The assay is described as follows: co-IP; anti-GFP IP from extract of the RpL10Ab::GFP trap fly stock, with and without RNase A; Western blot. For orientation: A western blot detects proteins with antibodies after separation by electrophoresis.

These are yes or no findings as the source states them, for the method shown. Binding seen in cells or lysates may run through a third protein. Some results given as binding are weak or reduced against the parent protein; the word gives no strength.

With RpL9 (from UniProt P50882 1-190), the binding entry in assay [1] is on record as “binds”.
On the same count and under the same terms, the result for RpS6 (from UniProt P29327 1-248) reads “binds”.
On the same count and under the same terms, the result for RpS15Aa (from UniProt P48149 1-130) reads “binds”.

B1: Drosophila Clueless (Clu) (protein, UniProt A1ZAB5 1-1448)
chain: MALETEAKNSNATATGDATATATKASGKAKENNNTAGGKKNLNPNSNQQNSNQNLVNGNGTAADGPAAKKKGKKNRNKSPTEPTTEAVLSNGHAEKPTVVDAVEDNADTNANVEKPQEGGAPDAEADGDDIDLDALQDIGITVNISSPGADLLCVQLSSMELVQEIHQLLMDREETCHRTCFSLQLDNVTLDNFAELKSINNLEQGSTIKVVEEPYTMREARIHVRHVRDLLKNLDPADAYNGIDCTSLTYLNTITQGDLLDKKRTRPDSVDCTPPEYVTPGVSDPPILPLHPNVKNAKGPQALKVLTTSAWNPPPGPRKLHGDLMYLYVVTMEDKRFHISACSKGFFINQSTDDTFNPKPDNPSHLSHSLIDLLSHISPSFRRAFQTIQKRRTMRHAFERVATPYQVYQWAAPILEHTVDAIRAEDAFSSKLGYEEHIPGQTRDWNEELQTTRELPRKTLPERLLRERAIFKVHGDFVTAATRGAMAVIDGNVLAINPGEDTKMQMFIWNNIFFSMGFDVRDHYKELGGDAAAFVAPRYDLHGVRVYNAVDIEGLYTLGTVVVDYRGYRVTAQSIIPGILEREQEQSVVYGSIDFGKTVLSHPKYLELLRQAGKHLKILPHVVLNERDEPVELCSSVECKGIIGNDGRHYILDLLRTFPPDVNFLKLQDVQLSKELVDMGFPIEHRHKLCCLRQELLEAFIEDRHVNFIRIAAARLQQLTTIKQSEKSEANPVPALEGAEAASKVNGAEKPDDKEKKNEEEEKKERSTSGEARAAAIVNAIREAQSNVATSNEVQAAEVVKRACAAVGSLKEKEFDFRFNPDVFSPGIRHADGEEGTSLAKQKVLVQEAAEFLVLKQIPAFIKEHMSHSSSPIDGQSLTESLHSHGINVRYLGKVIKILSQMPRMDYLHRIAVLELIVRATKHIYYTYMQNTEPLHLSAAISHFLNCLLTNGPVNPAVSSEEAHKKRGNGGKHNKHKSSKGGKGQQQQQTTGNQNGSSSGSSNSSSASDWTLMTPRSLWQQIRKEAKVYWDWELDCDSIETAVSKYGILRISLMRAFCLKVGIQVLLREYNFESKHKPTFGDDDIVNVFPIVKHISPRATDAYNFYTTGQAKIQQGLFKEGYELISGALNLLNNVFGALHQENGSCLRMLARLSYLLGDAQDALAIQQRAVIMSERVNGMDHPSTILEYTHLSLYSFANGHVGMSLKLLYRARYLMVLICGEDHPEVALIDSNISLILHALGEYELSLRFIEHALKLNLKYFGDKDMHVALSYHLMARTQSCMGDFRSALNNEKETYSFYKSQLGENHEKTRDSAECLRLLTQQAVLLQRKMNDIYSSGKLTSDLPPIHITPPSMGSVLDMLNTINGILFVKISRKDIVKVRSEIEKHFKTDSTENEVNDAINSIVAAANNNGEAEDAVSKDIKEQPEAGKQLTNGDKAAATEATSS
Regarding B1, the binding result in assay [2] was “binds”.

Values taken from paper PMC11625335.
